For some assays here: For expression read-outs the peptide stands for its source gene, whose mRNA was measured; the gene is not named for every peptide.

Parameters in all cases: species or system human
For data set [1], the system named is HLA-A*24 molecules of primary tumors. Nature of the data set: Identification and relative LC-MS quantitation of HLA-A*24 tumor-associated peptides presented on tissue samples (XPRESIDENT presentation profiles). The conditions noted are these: for ENTITIES: Table 9A: selected HLA-A*24-binding tumor-associated peptides, cancer entities on which the peptide was found presented.

Data set [2] deals with source genes of selected peptides. In words: Expression profiling of source genes by in-house RNAseq, tumor vs normal tissues (target coverage). To be noted: for Target coverage, over-expression of source gene, AML: AML (N = 7); for Target coverage, over-expression of source gene, AML / Target coverage, over-expression of source gene, BRCA / Target coverage, over-expression of source gene, CLL / Target coverage, over-expression of source gene, CRC / Target coverage, over-expression of source gene, GB / Target coverage, over-expression of source gene, HCC / Target coverage, over-expression of source gene, OC / Target coverage, over-expression of source gene, OSCAR / Target coverage, over-expression of source gene, PC / Target coverage, over-expression of source gene, RCC / Target coverage, over-expression of source gene, SCLC / Target coverage, over-expression of source gene, pNSCLC: in-house RNASeq; for Target coverage, over-expression of source gene, BRCA: BRCA (N = 10); for Target coverage, over-expression of source gene, CLL: CLL (N = 10); for Target coverage, over-expression of source gene, CRC: CRC (N = 20); for Target coverage, over-expression of source gene, GB: GB (N = 24); for Target coverage, over-expression of source gene, HCC: HCC (N = 15); for Target coverage, over-expression of source gene, OC: OC (N = 12); for Target coverage, over-expression of source gene, OSCAR: OSCAR (N = 11); for Target coverage, over-expression of source gene, PC: PC (N = 26); for Target coverage, over-expression of source gene, RCC: RCC (N = 10); for Target coverage, over-expression of source gene, SCLC: SCLC (N = 10); for Target coverage for source genes of selected peptides, GBC_CCC (N = 10): gallbladder adenocarcinoma and cholangiocarcinoma; for Target coverage for source genes of selected peptides, GBC_CCC (N = 10) / Target coverage for source genes of selected peptides, GC (N = 11) / Target coverage for source genes of selected peptides, HNSCC (N = 10) / Target coverage for source genes of selected peptides, MEL (N = 10) / Target coverage for source genes of selected peptides, NHL (N = 10) / Target coverage for source genes of selected peptides, PCA (n = 10) / Target coverage for source genes of selected peptides, UBC (N = 10) / Target coverage for source genes of selected peptides, UTC (N = 10): share of tumors with more than 1.5-fold higher expression than the highest-expressing relevant normal tissue, in-house RNAseq; for Target coverage for source genes of selected peptides, GC (N = 11): gastric cancer; for Target coverage for source genes of selected peptides, HNSCC (N = 10): head and neck small cell carcinoma; for Target coverage for source genes of selected peptides, MEL (N = 10): melanoma; for Target coverage for source genes of selected peptides, NHL (N = 10): non-Hodgkin lymphoma; for Target coverage, over-expression of source gene, pNSCLC: pNSCLC (N = 11); for Target coverage for source genes of selected peptides, PCA (n = 10): prostate cancer and benign prostate hyperplasia; for Target coverage for source genes of selected peptides, UBC (N = 10): urinary bladder cancer; for Target coverage for source genes of selected peptides, UTC (N = 10): uterine cancer.

For data set [3] the test system is unchanged. Nature of the data set: Target coverage of source genes in tumor entities based on TCGA Research Network data. The conditions noted are these: over-expressed = more than 2-fold above the highest 75% percentile of normal organs; for Target coverage, over-expression category of source gene, BLCA (N = 408): Bladder urothelial carcinoma; for Target coverage, over-expression category of source gene, DLBC (N = 48): Lymphoid neoplasm diffuse large B-cell lymphoma; for Target coverage, over-expression category of source gene, CESC (N = 307): Cervical squamous cell carcinoma and endocervical adenocarcinoma; for Target coverage, over-expression category of source gene, HNSC (N = 521): Head and neck squamous cell carcinoma.

The mark [4] stands for this setting: share of tumors with more than 1.5-fold higher expression than highest relevant normal tissue.
Where [5] appears, read: over-expression = more than 1.5-fold vs highest normal tissue.

As for “277: peptide found in TDG (gene looked up) (FYTFPFQQL; listed as Homo sapiens) [compound 277]”, in data set [1], the ENTITIES result is listed as “GC, RCC, PCA, HCC, NSCLC”. In data set [2] (setting [4]), the “Target coverage, over-expression of source gene, AML” value is on record as “I (<19% over-expression = I)”; the “Target coverage, over-expression of source gene, BRCA” value was “I (<19% over-expression = I)”; the “Target coverage, over-expression of source gene, CLL” value is reported as “I (<19% over-expression = I)”; the “Target coverage, over-expression of source gene, CRC” value was “I (<19% over-expression = I)”. In addition, in data set [2] (setting [4]), the “Target coverage, over-expression of source gene, GB” value is “I (<19% over-expression = I)”; the “Target coverage, over-expression of source gene, HCC” value is reported as “I (<19% over-expression = I)”; the “Target coverage, over-expression of source gene, OC” value was “I (<19% over-expression = I)”; the “Target coverage, over-expression of source gene, OSCAR” value is listed as “I (<19% over-expression = I)”. In addition, in data set [2] (setting [4]), the “Target coverage, over-expression of source gene, PC” value is listed as “I (<19% over-expression = I)”; the “Target coverage, over-expression of source gene, RCC” value is recorded as “I (<19% over-expression = I)”; the “Target coverage, over-expression of source gene, SCLC” value is listed as “II (20-49% = II)”; the “Target coverage, over-expression of source gene, pNSCLC” value is “I (<19% over-expression = I)”. For the same substance, in data set [2], the “Target coverage for source genes of selected peptides, GBC_CCC (N = 10)” value was “I (<19% over-expression = I)”; the “Target coverage for source genes of selected peptides, GC (N = 11)” value was “I (<19% over-expression = I)”; the “Target coverage for source genes of selected peptides, HNSCC (N = 10)” value is “II (20-49% = II)”; the “Target coverage for source genes of selected peptides, MEL (N = 10)” value is on record as “I (<19% over-expression = I)”. In data set [2], the “Target coverage for source genes of selected peptides, NHL (N = 10)” value is reported as “I (<19% over-expression = I)”; the “Target coverage for source genes of selected peptides, PCA (n = 10)” value was “I (<19% over-expression = I)”; the “Target coverage for source genes of selected peptides, UBC (N = 10)” value is given as “I (<19% over-expression = I)”; the “Target coverage for source genes of selected peptides, UTC (N = 10)” value is “I (<19% over-expression = I)”. Besides, in data set [3], the “Target coverage, over-expression category of source gene, BLCA (N = 408)” value was “C (>=5% of tumors above the cutoff, but <20%)” and the “Target coverage, over-expression category of source gene, DLBC (N = 48)” value is “C (>=5% of tumors above the cutoff, but <20%)”.
As for “244: peptide found in MMP13 (gene looked up) (VHFEDTGKTLLF; listed as Homo sapiens) [compound 244]”, the “Peptide Presentation on cancer entities” value in data set [1] (Table 9B: selected HLA-A*24 peptides, presentation on additional cancer entities) is on record as “NSCLC”. Moreover, in data set [2] (setting [4]), the “Target coverage, over-expression of source gene, AML” value is “I (<19% over-expression = I)”; the “Target coverage, over-expression of source gene, BRCA” value is listed as “II (20-49% = II)”; the “Target coverage, over-expression of source gene, CLL” value is reported as “I (<19% over-expression = I)”; the “Target coverage, over-expression of source gene, CRC” value is listed as “I (<19% over-expression = I)”. Moreover, in data set [2] (setting [4]), the “Target coverage, over-expression of source gene, GB” value is given as “I (<19% over-expression = I)”; the “Target coverage, over-expression of source gene, HCC” value was “I (<19% over-expression = I)”; the “Target coverage, over-expression of source gene, OC” value is on record as “I (<19% over-expression = I)”; the “Target coverage, over-expression of source gene, OSCAR” value was “III (50-69% = III)”. In data set [2] (setting [4]), the “Target coverage, over-expression of source gene, PC” value is listed as “I (<19% over-expression = I)”; the “Target coverage, over-expression of source gene, RCC” value is “I (<19% over-expression = I)”; the “Target coverage, over-expression of source gene, SCLC” value is listed as “I (<19% over-expression = I)”; the “Target coverage, over-expression of source gene, pNSCLC” value is recorded as “II (20-49% = II)”. In addition, in data set [3], the “Target coverage, over-expression category of source gene, BLCA (N = 408)” value is listed as “B (>=20% of tumors above the cutoff, but <50%)”; the “Target coverage, over-expression category of source gene, CESC (N = 307)” value was “B (>=20% of tumors above the cutoff, but <50%)”; the “Target coverage, over-expression category of source gene, HNSC (N = 521)” value is on record as “A (>=50% of tumors above the cutoff)”; the “Target coverage, over-expression category of source gene, DLBC (N = 48)” value is “C (>=5% of tumors above the cutoff, but <20%)”. The “Target coverage, over-expression category of source gene, MESO (N = 87)” value in data set [3] (Mesothelioma) is “C (>=5% of tumors above the cutoff, but <20%)”.
Regarding “123: peptide found in PRKDC (gene looked up) (VYTPVLEHL; listed as Homo sapiens) [compound 123]”, the ENTITIES entry in data set [1] was “NSCLC, GC, GB, HCC”. Besides, the “Target coverage, over-expression of source gene, AML” value in data set [2] (over-expression = more than 1.5-fold higher expression on tumor vs highest-expressing relevant normal tissue) is recorded as “I (<19% over-expression = I)”. Further, in data set [2] (setting [5]), the “Target coverage, over-expression of source gene, BRCA” value is given as “III (50-69% = III)”; the “Target coverage, over-expression of source gene, CLL” value is “I (<19% over-expression = I)”; the “Target coverage, over-expression of source gene, CRC” value is recorded as “II (20-49% = II)”; the “Target coverage, over-expression of source gene, GB” value is “III (50-69% = III)”. Besides, in data set [2] (setting [5]), the “Target coverage, over-expression of source gene, HCC” value is “I (<19% over-expression = I)”; the “Target coverage, over-expression of source gene, OC” value is reported as “III (50-69% = III)”; the “Target coverage, over-expression of source gene, OSCAR” value was “II (20-49% = II)”; the “Target coverage, over-expression of source gene, PC” value is given as “I (<19% over-expression = I)”. For the same substance, in data set [2] (setting [5]), the “Target coverage, over-expression of source gene, RCC” value is reported as “I (<19% over-expression = I)”; the “Target coverage, over-expression of source gene, SCLC” value was “IV (>70% = IV)”; the “Target coverage, over-expression of source gene, pNSCLC” value is recorded as “III (50-69% = III)”. Also, in data set [2], the “Target coverage for source genes of selected peptides, GBC_CCC (N = 10)” value was “I (<19% over-expression = I)”; the “Target coverage for source genes of selected peptides, GC (N = 11)” value is “I (<19% over-expression = I)”; the “Target coverage for source genes of selected peptides, HNSCC (N = 10)” value was “I (<19% over-expression = I)”; the “Target coverage for source genes of selected peptides, MEL (N = 10)” value is listed as “II (20-49% = II)”. In addition, in data set [2], the “Target coverage for source genes of selected peptides, NHL (N = 10)” value is recorded as “II (20-49% = II)”; the “Target coverage for source genes of selected peptides, PCA (n = 10)” value is “I (<19% over-expression = I)”; the “Target coverage for source genes of selected peptides, UBC (N = 10)” value is reported as “I (<19% over-expression = I)”; the “Target coverage for source genes of selected peptides, UTC (N = 10)” value was “I (<19% over-expression = I)”. In data set [3], the “Target coverage, over-expression category of source gene, BLCA (N = 408)” value is “C (>=5% of tumors above the cutoff, but <20%)”; the “Target coverage, over-expression category of source gene, CESC (N = 307)” value was “C (>=5% of tumors above the cutoff, but <20%)”; the “Target coverage, over-expression category of source gene, HNSC (N = 521)” value is “B (>=20% of tumors above the cutoff, but <50%)”.

The values above are taken from patent publication US10159726B2, “Peptides, combination of peptides and scaffolds for use in immunotherapeutic treatment of various cancers” (Immatics Biotechnologies GmbH, priority 2015, dated 2018).
